The values that follow come from patent publication US10758530B2, “Carboxamide derivatives useful as rsk inhibitors” (PHOENIX MOLECULAR DESIGNS, priority 2016, dated 2020).

Structures can show the parent of a compound that is named as a salt. No dose or concentration is given here for some results. A value given as a limit tells only on which side of the number the result lay.

This data set deals with CD34+ cells. Briefly: Colony forming unit hematopoietic stem cell assay. The format is cell-based, human. To be noted: ratio of IC50 against CD34 cells and MDA-MB-231 cells.
Take `C[C@@H]1CNC(=O)c2cc3ccc(C(=O)Nc4cnn(Cc5ccccc5)c4)nc3n21` [Compound 0, (R)—N-(1-benzyl-1H-pyrazol-4-yl)-9-methyl-6-oxo-6,7,8,9-tetrahydropyrido[3′,2′:4,5]pyrrolo[1,2-a]pyrazine-2-carboxamide, reference compound]: the “Therapeutic Window” value is 50X.

As to `C[C@@H]1CNC(=O)c2cc3ccc(C(=O)Nc4cnn(Cc5cccc(N)c5)c4)nc3n21` [Compound 16, (R)—N-(1-(3-aminobenzyl)-1H-pyrazol-4-yl)-9-methyl-6-oxo-6,7,8,9-tetrahydropyrido[3′,2′:4,5]pyrrolo[1,2-a]pyrazine-2-carboxamide], the “Therapeutic Window” value was above 100X.

With `C[C@@H]1CNC(=O)c2cc3ccc(C(=O)Nc4cnn(Cc5ccc(N)cc5)c4)nc3n21` [Compound 25, (R)—N-(1-(4-aminobenzyl)-1H-pyrazol-4-yl)-9-methyl-6-oxo-6,7,8,9-tetrahydropyrido[3′,2′:4,5]pyrrolo[1,2-a]pyrazine-2-carboxamide hydrochloride salt], the “Therapeutic Window” value was above 100X.

As to `CC(=O)O[C@H]1C(=O)[C@@]2(C)[C@H]([C@H](OC(=O)c3ccccc3)[C@]3(O)C[C@H](OC(=O)[C@H](O)[C@@H](NC(=O)c4ccccc4)c4ccccc4)C(C)=C1C3(C)C)[C@]1(OC(C)=O)CO[C@@H]1C[C@@H]2O` [Taxol, paclitaxel, reference compound], the “Therapeutic Window” value is 6.9X.
